PubChem BioAssay AID1224831, NIAID | 2016
Test: 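Retesting screen hits on the TLR4-driven TNF response with six separate siRNAs each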 (follow-up of hits). System: human THP-1 B5 monocytic leukaemia cells carrying a TNF promoter luciferase reporter, made macrophage-like with PMA. Reagent: single siRNA against human genes, 50 nM. Time to read-out: about 68 h of knock-down, then 4 h LPS. Challenge: LPS (Salmonella minnesota, TLR-grade) at 10 ng/ml for 4 h; PMA 5 ng/ml present during knock-down. Measured: 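Firefly to renilla luciferase ratio of a TNF promoter reporter after 4 h LPS, scaled to plate median, turned into robust z-score, averaged over replicates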. Direction: TNF reporter z-score: higher = stronger LPS-induced TNF reporter signal; z-score, median over gene's siRNAs: higher = stronger TNF reporter signal across the gene's siRNAs. Hit rule: 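Active when the replicate mean z-score is about -1 or lower, or about 1.5 or higher; lowered and raised TNF reporter signal both count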. Calls: active = changed TNF reporter (either direction); inactive = little change.
This is a random part of about 3,500 deposited reagents. Of all reagents, 731 (21%) got an active call. 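Active means either lowered or raised reporter signal; the gene-median score did not drive the per-siRNA calls.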 Reagents against one gene are numbered here.

| gene symbol | reagent | TNF reporter z-score, replicate mean | z-score, median over gene's siRNAs | Outcome |
| --- | --- | --- | --- | --- |
| FAM221B (family with sequence similarity 221 member B) | 1 | -0.8 | -0.76 | inactive |
| FAM221B (family with sequence similarity 221 member B) | 2 | -1.14 | -0.76 | active |
| FAM221B (family with sequence similarity 221 member B) | 3 | -0.66 | -0.76 | inactive |
| FAM221B (family with sequence similarity 221 member B) | 4 | -0.55 | -0.76 | inactive |
| FAM221B (family with sequence similarity 221 member B) | 5 | -0.72 | -0.76 | inactive |
| FAM221B (family with sequence similarity 221 member B) | 6 | -1.43 | -0.76 | active |
| LRRC40 (leucine rich repeat containing 40) | 1 | 0.76 | -0.24 | inactive |
| LRRC40 (leucine rich repeat containing 40) | 2 | -0.53 | -0.24 | inactive |
| LRRC40 (leucine rich repeat containing 40) | 3 | -0.18 | -0.24 | inactive |
| LRRC40 (leucine rich repeat containing 40) | 4 | -0.3 | -0.24 | inactive |
| LRRC40 (leucine rich repeat containing 40) | 5 | -1.06 | -0.24 | active |
| LRRC40 (leucine rich repeat containing 40) | 6 | 1.93 | -0.24 | active |
| RNASEL (ribonuclease L) | 1 | -0.05 | 0.51 | inactive |
| RNASEL (ribonuclease L) | 2 | 0.62 | 0.51 | inactive |
| RNASEL (ribonuclease L) | 3 | 0.47 | 0.51 | inactive |
| RNASEL (ribonuclease L) | 4 | -0.98 | 0.51 | inactive |
| RNASEL (ribonuclease L) | 5 | 0.55 | 0.51 | inactive |
| RNASEL (ribonuclease L) | 6 | 1.53 | 0.51 | active |
| GRIP2 (glutamate receptor interacting protein 2) | 1 | 3.27 | 0.06 | active |
| GRIP2 (glutamate receptor interacting protein 2) | 2 | -0.86 | 0.06 | inactive |
| GRIP2 (glutamate receptor interacting protein 2) | 3 | 0.2 | 0.06 | inactive |
| GRIP2 (glutamate receptor interacting protein 2) | 4 | 3.59 | 0.06 | active |
| GRIP2 (glutamate receptor interacting protein 2) | 5 | -0.88 | 0.06 | inactive |
| GRIP2 (glutamate receptor interacting protein 2) | 6 | -0.08 | 0.06 | inactive |
| LOXL2 (lysyl oxidase like 2) | 1 | 0.36 | 0.26 | inactive |
| LOXL2 (lysyl oxidase like 2) | 2 | 0.16 | 0.26 | inactive |
| LOXL2 (lysyl oxidase like 2) | 3 | -0.23 | 0.26 | inactive |
| LOXL2 (lysyl oxidase like 2) | 4 | -0.52 | 0.26 | inactive |
| LOXL2 (lysyl oxidase like 2) | 5 | 0.56 | 0.26 | inactive |
| LOXL2 (lysyl oxidase like 2) | 6 | 0.53 | 0.26 | inactive |
| PRSS23 (serine protease 23) | 1 | 0.53 | 0.205 | inactive |
| PRSS23 (serine protease 23) | 2 | -0.12 | 0.205 | inactive |
| PRSS23 (serine protease 23) | 3 | 0.54 | 0.205 | inactive |
| PRSS23 (serine protease 23) | 4 | -0.66 | 0.205 | inactive |
| PRSS23 (serine protease 23) | 5 | -1.15 | 0.205 | active |
| PRSS23 (serine protease 23) | 6 | 1.3 | 0.205 | inactive |
| GATA3 (GATA binding protein 3) | 1 | 0.33 | -0.345 | inactive |
| GATA3 (GATA binding protein 3) | 2 | -0.88 | -0.345 | inactive |
| GATA3 (GATA binding protein 3) | 3 | -0.25 | -0.345 | inactive |
| GATA3 (GATA binding protein 3) | 4 | -0.47 | -0.345 | inactive |
| GATA3 (GATA binding protein 3) | 5 | 0.27 | -0.345 | inactive |
| GATA3 (GATA binding protein 3) | 6 | -0.44 | -0.345 | inactive |

11 entries already listed, sorted by “z-score, median over gene's siRNAs”, descending.
| gene symbol | reagent | TNF reporter z-score, replicate mean | z-score, median over gene's siRNAs | Outcome |
| --- | --- | --- | --- | --- |
| LOXL2 (lysyl oxidase like 2) | 1 | 0.36 | 0.26 | inactive |
| LOXL2 (lysyl oxidase like 2) | 2 | 0.16 | 0.26 | inactive |
| LOXL2 (lysyl oxidase like 2) | 3 | -0.23 | 0.26 | inactive |
| LOXL2 (lysyl oxidase like 2) | 4 | -0.52 | 0.26 | inactive |
| LOXL2 (lysyl oxidase like 2) | 5 | 0.56 | 0.26 | inactive |
| LOXL2 (lysyl oxidase like 2) | 6 | 0.53 | 0.26 | inactive |
| PRSS23 (serine protease 23) | 1 | 0.53 | 0.205 | inactive |
| PRSS23 (serine protease 23) | 2 | -0.12 | 0.205 | inactive |
| PRSS23 (serine protease 23) | 3 | 0.54 | 0.205 | inactive |
| PRSS23 (serine protease 23) | 4 | -0.66 | 0.205 | inactive |
| GRIP2 (glutamate receptor interacting protein 2) | 6 | -0.08 | 0.06 | inactive |

Continued:
| gene symbol | reagent | TNF reporter z-score, replicate mean | z-score, median over gene's siRNAs | Outcome |
| --- | --- | --- | --- | --- |
| GDF9 (growth differentiation factor 9) | 1 | 0.34 | -0.11 | inactive |
| GDF9 (growth differentiation factor 9) | 2 | 0.26 | -0.11 | inactive |
| GDF9 (growth differentiation factor 9) | 3 | 0.27 | -0.11 | inactive |
| GDF9 (growth differentiation factor 9) | 4 | -0.74 | -0.11 | inactive |
| GDF9 (growth differentiation factor 9) | 5 | -0.48 | -0.11 | inactive |
| GDF9 (growth differentiation factor 9) | 6 | -0.56 | -0.11 | inactive |
| TNFSF4 (TNF superfamily member 4) | 1 | 1.16 | 1.05 | inactive |
| TNFSF4 (TNF superfamily member 4) | 2 | 1.15 | 1.05 | inactive |
| TNFSF4 (TNF superfamily member 4) | 3 | -0.2 | 1.05 | inactive |
| TNFSF4 (TNF superfamily member 4) | 4 | -0.85 | 1.05 | inactive |
| TNFSF4 (TNF superfamily member 4) | 5 | 0.95 | 1.05 | inactive |
| TNFSF4 (TNF superfamily member 4) | 6 | 1.48 | 1.05 | inactive |
| RPL23 (ribosomal protein L23) | 1 | -0.02 | 0.305 | inactive |
| RPL23 (ribosomal protein L23) | 2 | 0.93 | 0.305 | inactive |
| RPL23 (ribosomal protein L23) | 3 | 0.17 | 0.305 | inactive |
| RPL23 (ribosomal protein L23) | 4 | -0.31 | 0.305 | inactive |
| RPL23 (ribosomal protein L23) | 5 | 2.12 | 0.305 | active |
| RPL23 (ribosomal protein L23) | 6 | 0.44 | 0.305 | inactive |
| STK4 (serine/threonine kinase 4) | 1 | 0.16 | -0.075 | inactive |
| STK4 (serine/threonine kinase 4) | 2 | -0.09 | -0.075 | inactive |
| STK4 (serine/threonine kinase 4) | 3 | -0.42 | -0.075 | inactive |
| STK4 (serine/threonine kinase 4) | 4 | -0.52 | -0.075 | inactive |
| STK4 (serine/threonine kinase 4) | 5 | 0.9 | -0.075 | inactive |
| STK4 (serine/threonine kinase 4) | 6 | -0.06 | -0.075 | inactive |
| FSAF1 (40S small subunit processome assembly factor 1) | 1 | -1.1 | 0.37 | active |
| FSAF1 (40S small subunit processome assembly factor 1) | 2 | 0.6 | 0.37 | inactive |
| FSAF1 (40S small subunit processome assembly factor 1) | 3 | 0.32 | 0.37 | inactive |
| FSAF1 (40S small subunit processome assembly factor 1) | 4 | 0.57 | 0.37 | inactive |
| FSAF1 (40S small subunit processome assembly factor 1) | 5 | 0.34 | 0.37 | inactive |
| FSAF1 (40S small subunit processome assembly factor 1) | 6 | 0.4 | 0.37 | inactive |
| ANKH (ANKH inorganic pyrophosphate transport regulator) | 1 | -0.56 | 0.425 | inactive |
| ANKH (ANKH inorganic pyrophosphate transport regulator) | 2 | 0.67 | 0.425 | inactive |
| ANKH (ANKH inorganic pyrophosphate transport regulator) | 3 | 0.21 | 0.425 | inactive |
| ANKH (ANKH inorganic pyrophosphate transport regulator) | 4 | 1.18 | 0.425 | inactive |
| ANKH (ANKH inorganic pyrophosphate transport regulator) | 5 | 0.48 | 0.425 | inactive |
| ANKH (ANKH inorganic pyrophosphate transport regulator) | 6 | 0.37 | 0.425 | inactive |
| SPINK5 (serine peptidase inhibitor Kazal type 5) | 1 | 0.01 | 0.39 | inactive |
| SPINK5 (serine peptidase inhibitor Kazal type 5) | 2 | 0.6 | 0.39 | inactive |
| SPINK5 (serine peptidase inhibitor Kazal type 5) | 3 | 0.57 | 0.39 | inactive |
| SPINK5 (serine peptidase inhibitor Kazal type 5) | 4 | 0.21 | 0.39 | inactive |
| SPINK5 (serine peptidase inhibitor Kazal type 5) | 5 | -0.6 | 0.39 | inactive |
| SPINK5 (serine peptidase inhibitor Kazal type 5) | 6 | 2.41 | 0.39 | active |
